This is one part of the list. Single values are uncertain, as repeats are few or missing.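 The apoptosis fraction was the count of cleaved-PARP antibody-stained nuclei relative to all DNA-stained nuclei, imaged in 1,536-well plates. Screening doses were set so most cells survived, and baseline and induced cleaved-PARP levels vary greatly across cell lines.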

This experiment deals with 501Mel. The experiment in a line: cleaved PARP positive nuclei fraction relative to DMSO control; melanoma cells; higher = more apoptosis. The note with it: library dose: low library concentration; 72 h.
With `NC1(c2ccc(-c3nc4ccn5c(=O)[nH]nc5c4cc3-c3ccccc3)cc2)CCC1` + Cc1cc([N+](=O)[O-])ccc1NS(=O)(=O)c1cc(Cl)ccc1Cl [FH535] (first compound 0.4 µM, partner dose 1 µM), the “cleaved PARP positive nuclei fraction” value was 198%.
For `NC1(c2ccc(-c3nc4ccn5c(=O)[nH]nc5c4cc3-c3ccccc3)cc2)CCC1` + O=S(=O)(c1ccccc1)N(CC(F)(F)F)c1ccc(C(O)(C(F)(F)F)C(F)(F)F)cc1 [T0901317] (first compound 0.4 µM, partner dose 1.4 µM), the “cleaved PARP positive nuclei fraction” value stood at 26.8%.
Consider `CS(=O)(=O)c1ccc(C(=O)Nc2ccc(Cl)c(-c3ccccn3)c2)c(Cl)c1` [vismodegib] + Oc1cc(-c2nc(-c3ccccc3)[nH]c2-c2ccncc2)ccc1Cl [L779450] (first compound 1 µM, partner dose 0.2 µM), for which the “cleaved PARP positive nuclei fraction” value was 94%.
As to `C[C@]1(O)C[C@@H](c2nc(-c3ccc4ccc(-c5ccccc5)nc4c3)c3c(N)nccn32)C1` + CC(C)CCN1c2nc(Nc3cc(F)c(O)c(F)c3)ncc2N(C)C(=O)C1C [BID1870] (first compound 0.4 µM, partner dose 0.2 µM), the “cleaved PARP positive nuclei fraction” value is 154%.
With `Cn1cnc2c(F)c(Nc3ccc(Br)cc3Cl)c(C(=O)NOCCO)cc21` [selumetinib] + CC(C)CCN1c2nc(Nc3cc(F)c(O)c(F)c3)ncc2N(C)C(=O)C1C [BID1870] (first compound 0.015 µM, partner dose 0.2 µM), the “cleaved PARP positive nuclei fraction” value was 129%.
The result for `C[C@]1(O)C[C@@H](c2nc(-c3ccc4ccc(-c5ccccc5)nc4c3)c3c(N)nccn32)C1` + CCN(CC)CCCCNc1ncc2cc(-c3cc(OC)cc(OC)c3)c(NC(=O)NC(C)(C)C)nc2n1 [PD173074] (first compound 0.4 µM, partner dose 0.1 µM) reads 76.3%; that for `CCCCCCCCc1ccc(CCC(N)(CO)CO)cc1` [fingolimod] + Cn1cc(/C=C2\C(=O)Nc3cccnc32)c2ccccc21 [GW441756] (first compound 2 µM, partner dose 0.4 µM), 92.2%.
The result for `CS(=O)(=O)c1ccc(C(=O)Nc2ccc(Cl)c(-c3ccccn3)c2)c(Cl)c1` [vismodegib] + COc1ccc(COc2ccc(Cc3cnc(N)nc3N)cc2OC)cc1 [GW2580] (first compound 1 µM, partner dose 1 µM) reads 55.7%; that for `CC(=O)O[C@@]12CO[C@@H]1C[C@H](O)[C@@]1(C)C(=O)[C@H](O)C3=C(C)[C@@H](OC(=O)[C@H](O)[C@@H](NC(=O)OC(C)(C)C)c4ccccc4)C[C@@](O)([C@@H](OC(=O)c4ccccc4)[C@H]21)C3(C)C` [Docetaxel] + c1cc(-c2cnn3cc(-c4ccc(OCCN5CCCCC5)cc4)cnc23)ccn1 [Dorsomorphin] (first compound 0.0001 µM, partner dose 0.4 µM), 219%; that for `CS(=O)(=O)c1ccc(C(=O)Nc2ccc(Cl)c(-c3ccccn3)c2)c(Cl)c1` [vismodegib] + O=C(Nc1ccccc1)c1cc([N+](=O)[O-])ccc1Cl [GW9662] (first compound 1 µM, partner dose 2 µM), 54.4%.
Consider `NC(=O)c1ccc(N(C(N)=O)c2c(F)cccc2F)nc1-c1ccc(F)cc1F` + COc1ccc(-c2ccc3c(N4CCOCC4)nc(N4C[C@@H](C)O[C@@H](C)C4)nc3n2)cc1CO [KU0063794] (first compound 0.4 µM, partner dose 0.02 µM), for which the “cleaved PARP positive nuclei fraction” value was 231%.
With `CN(c1ncccc1CNc1nc(Nc2ccc3c(c2)CC(=O)N3)ncc1C(F)(F)F)S(C)(=O)=O` + Oc1nc(-c2ccc(C(F)(F)F)cc2)nc2c1CSCC2 [XAV939] (first compound 0.08 µM, partner dose 2 µM), the “cleaved PARP positive nuclei fraction” value is 124%.
The result for `CS(=O)(=O)c1ccc(C(=O)Nc2ccc(Cl)c(-c3ccccn3)c2)c(Cl)c1` [vismodegib] + COC(=O)c1sccc1S(=O)(=O)Nc1ccc(Nc2ccccc2)cc1OC [GSK0660] (first compound 1 µM, partner dose 1 µM) reads 59.8%.
For `Cn1sc(=O)n(Cc2ccccc2)c1=O` + O=C(O)C(=O)Nc1sc2c(c1C(=O)O)CCNC2 [TCS401] (first compound 0.4 µM, partner dose 1.66667 µM) the value was 78.3%; for `Cn1cnc2c(F)c(Nc3ccc(Br)cc3Cl)c(C(=O)NOCCO)cc21` [selumetinib] + N#Cc1c(O)c2c(-c3ccc(-c4ccccc4O)cc3)csc2[nH]c1=O [A769662] (first compound 0.015 µM, partner dose 2 µM), 65.5%; for `CCN(CC)CCNC(=O)c1c(C)[nH]c(/C=C2\C(=O)Nc3ccc(F)cc32)c1C` [sunitinib] + N#Cc1c(O)c2c(-c3ccc(-c4ccccc4O)cc3)csc2[nH]c1=O [A769662] (first compound 0.4 µM, partner dose 2 µM), 90.8%.
For `CS(=O)(=O)c1ccc(C(=O)Nc2ccc(Cl)c(-c3ccccn3)c2)c(Cl)c1` [vismodegib] + Cn1cc(/C=C2\C(=O)Nc3cccnc32)c2ccccc21 [GW441756] (first compound 1 µM, partner dose 0.4 µM), the “cleaved PARP positive nuclei fraction” value is 76%.
Turning to `COc1ccc(C2=N[C@@H](c3ccc(Cl)cc3)[C@@H](c3ccc(Cl)cc3)N2C(=O)N2CCNC(=O)C2)c(OC(C)C)c1` [Nutlin-3] + Cn1cc(/C=C2\C(=O)Nc3cccnc32)c2ccccc21 [GW441756] (first compound 0.1 µM, partner dose 0.4 µM), the “cleaved PARP positive nuclei fraction” value was found to be 71.2%.
For `COc1ccc(C2=N[C@@H](c3ccc(Cl)cc3)[C@@H](c3ccc(Cl)cc3)N2C(=O)N2CCNC(=O)C2)c(OC(C)C)c1` [Nutlin-3] + COc1ccc(COc2ccc(Cc3cnc(N)nc3N)cc2OC)cc1 [GW2580] (first compound 0.1 µM, partner dose 1 µM), the “cleaved PARP positive nuclei fraction” value stood at 131%.
For the compound `C[C@@H](N)c1ccc(C(=O)Nc2ccnc3[nH]ccc23)cc1` + O=C1NC(=O)/C(=C/c2ccc(-c3ccc(F)cc3O)o2)S1 [AS252424] (first compound 0.4 µM, partner dose 1 µM), the “cleaved PARP positive nuclei fraction” value was determined as 144%.
In the case of `C[C@]1(O)C[C@@H](c2nc(-c3ccc4ccc(-c5ccccc5)nc4c3)c3c(N)nccn32)C1` + Oc1cc(-c2nc(-c3ccccc3)[nH]c2-c2ccncc2)ccc1Cl [L779450] (first compound 0.4 µM, partner dose 0.2 µM), the “cleaved PARP positive nuclei fraction” value was 69.7%.
For `CCCCCCCCc1ccc(CCC(N)(CO)CO)cc1` [fingolimod] + COC(=O)c1sccc1S(=O)(=O)Nc1ccc(Nc2ccccc2)cc1OC [GSK0660] (first compound 2 µM, partner dose 1 µM) the value was 168%.
Turning to `CCN(CC)CCNC(=O)c1c(C)[nH]c(/C=C2\C(=O)Nc3ccc(F)cc32)c1C` [sunitinib] + O=C1NC(=O)/C(=C/c2ccc(-c3ccc(F)cc3O)o2)S1 [AS252424] (first compound 0.4 µM, partner dose 1 µM), the “cleaved PARP positive nuclei fraction” value turned out to be 97.3%.
For `NC1(c2ccc(-c3nc4ccn5c(=O)[nH]nc5c4cc3-c3ccccc3)cc2)CCC1` + CC(C)CCN1c2nc(Nc3cc(F)c(O)c(F)c3)ncc2N(C)C(=O)C1C [BID1870] (first compound 0.4 µM, partner dose 0.2 µM) the value was 88.6%; for `CC(=O)O[C@@]12CO[C@@H]1C[C@H](O)[C@@]1(C)C(=O)[C@H](O)C3=C(C)[C@@H](OC(=O)[C@H](O)[C@@H](NC(=O)OC(C)(C)C)c4ccccc4)C[C@@](O)([C@@H](OC(=O)c4ccccc4)[C@H]21)C3(C)C` [Docetaxel] + CCCCCCCCCCCC1=C(O)C(=O)C=C(O)C1=O [Embelin] (first compound 0.0001 µM, partner dose 1.2 µM), 194%; for `Cn1cnc2c(F)c(Nc3ccc(Br)cc3Cl)c(C(=O)NOCCO)cc21` [selumetinib] + COc1ccc(COc2ccc(Cc3cnc(N)nc3N)cc2OC)cc1 [GW2580] (first compound 0.015 µM, partner dose 1 µM), 413%.
On to `C[C@]1(O)C[C@@H](c2nc(-c3ccc4ccc(-c5ccccc5)nc4c3)c3c(N)nccn32)C1` + O=C(O)C(=O)Nc1sc2c(c1C(=O)O)CCNC2 [TCS401] (first compound 0.4 µM, partner dose 1.66667 µM), for which the “cleaved PARP positive nuclei fraction” value was 65.8%.
In the case of `CCN(CC)CCNC(=O)c1c(C)[nH]c(/C=C2\C(=O)Nc3ccc(F)cc32)c1C` [sunitinib] + c1cc(-c2cnn3cc(-c4ccc(OCCN5CCCCC5)cc4)cnc23)ccn1 [Dorsomorphin] (first compound 0.4 µM, partner dose 0.4 µM), the “cleaved PARP positive nuclei fraction” value came to 278%.
In the case of `CC1(C)CCC(c2ccc(Cl)cc2)=C(CN2CCN(c3ccc(C(=O)NS(=O)(=O)c4ccc(N[C@H](CCN5CCOCC5)CSc5ccccc5)c(S(=O)(=O)C(F)(F)F)c4)cc3)CC2)C1` + COc1cc(N2CCC(N3CCN(C)CC3)CC2)ccc1Nc1ncc(Cl)c(Nc2ccccc2S(=O)(=O)C(C)C)n1 [NVP-TAE684] (first compound 0.4 µM, partner dose 0.08 µM), the “cleaved PARP positive nuclei fraction” value is 189%.
For `Cn1sc(=O)n(Cc2ccccc2)c1=O` + CCN(CC)CCCCNc1ncc2cc(-c3cc(OC)cc(OC)c3)c(NC(=O)NC(C)(C)C)nc2n1 [PD173074] (first compound 0.4 µM, partner dose 0.1 µM), the “cleaved PARP positive nuclei fraction” value came to 72.8%.
The result for `CCN(CC)CCNC(=O)c1c(C)[nH]c(/C=C2\C(=O)Nc3ccc(F)cc32)c1C` [sunitinib] + CCCCCCCCCCCC1=C(O)C(=O)C=C(O)C1=O [Embelin] (first compound 0.4 µM, partner dose 1.2 µM) reads 83.9%.

These data come from the supplement of paper PMC4604168 (melanoma cell lines).
